Results as given in PubChem BioAssay AID487 (Columbia University Molecular Screening Center, 2006).
The list shows a part of the results.

Test: endothelial E-selectin expression blockers – imaging, HUVEC, immunofluorescence, MLSMR starter and 10KST1 sets, primary screen (AID 487);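 also: 100% = median nuclei count of all wells on the same plate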
Conditions: HUVEC TNFalpha-induced E-selectin immunofluorescence imaging; measured here: cell number, toxicity; at 2 µM

Row | Compound | nuclei count [%]
1 | Fc1ccccc1NC1CCN(Cc2ccccc2)CC1 | 115
